Experimental data from PubChem BioAssay AID540275 (National Center for Advancing Translational Sciences (NCATS), 2011).
Values joined by “and” are separate entries in the source; they are usually repeats but may differ in a detail not shown here. Equal entries are not always repeated. Among all 320,000 compounds or so, about 620 (0.19%) were called active. The shares of active, inactive and inconclusive entries below differ from those in the screen. Cut-off read from the data, not from the text of the source: active = activation above about 80%; inconclusive = between about 30% and that limit; inactive = weaker than that.

Sequences of proteins named here, by UniProt entry; tags and fusion partners are left off.
UniProt Q8NER1, whole entry, looked up: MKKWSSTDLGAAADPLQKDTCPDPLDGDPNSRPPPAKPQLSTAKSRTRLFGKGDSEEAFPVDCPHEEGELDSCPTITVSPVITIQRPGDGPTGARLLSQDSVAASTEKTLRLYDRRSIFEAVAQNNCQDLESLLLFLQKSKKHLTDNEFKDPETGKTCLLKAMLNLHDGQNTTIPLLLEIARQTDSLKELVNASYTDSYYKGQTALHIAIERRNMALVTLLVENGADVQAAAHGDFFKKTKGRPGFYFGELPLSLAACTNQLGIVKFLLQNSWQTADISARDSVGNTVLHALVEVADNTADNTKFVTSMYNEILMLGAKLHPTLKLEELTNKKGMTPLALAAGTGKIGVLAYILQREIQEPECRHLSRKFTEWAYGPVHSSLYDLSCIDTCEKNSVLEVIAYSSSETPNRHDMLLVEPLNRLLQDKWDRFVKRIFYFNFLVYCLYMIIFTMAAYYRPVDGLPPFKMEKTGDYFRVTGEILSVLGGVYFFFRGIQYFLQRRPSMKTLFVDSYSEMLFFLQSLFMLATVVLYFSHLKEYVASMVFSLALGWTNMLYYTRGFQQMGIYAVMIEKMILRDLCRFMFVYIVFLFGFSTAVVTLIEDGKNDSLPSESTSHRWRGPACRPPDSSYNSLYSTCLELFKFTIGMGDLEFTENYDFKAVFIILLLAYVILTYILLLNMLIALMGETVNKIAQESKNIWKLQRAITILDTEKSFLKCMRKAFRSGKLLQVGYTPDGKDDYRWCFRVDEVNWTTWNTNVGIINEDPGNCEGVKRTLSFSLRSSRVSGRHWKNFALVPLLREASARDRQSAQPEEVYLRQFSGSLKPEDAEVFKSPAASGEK

Biological target: Transient receptor potential cation channel subfamily V member 1 (Homo sapiens) (UniProt Q8NER1)
Assay: HTS Assay for Compounds that Act as Agonists of the Vanilloid Receptor 1; note: 0% is about no effect
Conditions: TRPV1-expressing cells, Fluo-8 calcium influx, agonist mode; at 8.33 µM, stronger effect = higher value
Method in brief: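 Cells expressing TRPV1 were dye-loaded with Fluo-8 and read kinetically: 10 s baseline, 3 min after compound (agonist portion), then 2 min after EC20 capsaicin (allosteric enhancer portion). Calcium-bound dye fluorescence at 480/520 nm.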

Row | SMILES | activation
1 | Cc1ccc(OCc2ccc(C(=O)NCc3cccnc3)cc2)cc1C | inconclusive: 56.4%
2 | O=C(N/N=C/c1ccccn1)c1ccc(Cl)cc1 | inactive: 15%
3 | ClCC1CSC(=NC23CC4CC(CC(C4)C2)C3)O1 (stereo not given) | inconclusive: 40.5%
4 | COc1cccc(-n2cc(CN(C)Cc3nc(Cc4ccccc4)no3)cn2)c1 | inconclusive: 30.8%
5 | Cc1ccc(CCNC(=O)CN(c2ccc(C)cc2)S(=O)(=O)c2c(C)noc2C)cc1 | inactive: 5.33%
6 | O=C(NC1CCCC1)C(c1ccccn1)N(C(=O)c1csnn1)c1ccccc1F (stereo not given) | inactive: -0.671%
7 | C=CCOc1ccc(/C=C/C(=O)OCC(=O)NC(C)c2ccc(F)cc2)cc1 (stereo not given) | inactive: 0.454%
8 | COc1ccccc1-c1nc(-c2ccc(Br)o2)no1 | inactive: -4.31%
9 | CCOC(=O)CC1COc2ccccc2N1C(=O)c1ccc(C)cc1 (stereo not given) | inconclusive: 50.8%
10 | COc1ccc(-c2cn(-c3ccccc3)c3[n+]2CCS3)cc1 | inactive: -3.49% and inactive: -2.58%
11 | Cc1nc(-c2ccc(F)cc2)c(CC(=O)N(C)CC(=O)Nc2c(C)cccc2C)s1 | inactive: -1.54%
12 | O=C(Nc1cccc(-n2cnnn2)c1)c1ccoc1COc1ccc(Cl)cc1 | inconclusive: 39.4%
13 | CCOc1ccc(C(=O)N/N=C(\c2ccccc2)c2ccccn2)cc1 | inconclusive: 61.8%
14 | O=C(COC(=O)c1cccc(Cl)c1)NC1CCCCCCC1 | inconclusive: 41.9%
15 | Cc1cc(NC(=O)CCSc2nc(-c3ccco3)cc(C(F)(F)F)n2)n(-c2ccccc2)n1 | inactive: 2.44%
16 | CCOC(=O)N1CCC(NC(=O)C2CCCN(Cc3nc(-c4cccc(Cl)c4)oc3C)C2)CC1 (stereo not given) | inactive: 3.23%
17 | Cc1ccc(-n2c(O)c(/C=N/c3ncn[nH]3)c3ccccc3c2=O)cc1 | inconclusive: 48%
18 | Cc1cc(=O)[nH]c(SCCCOc2ccc3c(c2)CCC3)n1 | inconclusive: 54.1%
19 | CCOC(=O)Cc1csc(NC(=O)CSc2nnc(-c3ccc(F)cc3)o2)n1 | inactive: 0.547%
20 | COc1ccc(/C=C2\CCc3ccccc3C2=O)cc1Cn1cccn1 | inconclusive: 49.7%
21 | CCN(CC)S(=O)(=O)c1ccc(N2CCCC2)c(NC(=O)CC(C)(C)C)c1 | inconclusive: 40.9%
22 | O=C(Nc1ccc(Cc2ccncc2)cc1)c1ccc(S(=O)(=O)N2CCOCC2)cc1 | inconclusive: 56.1%
23 | O=[N+]([O-])c1cc([N+](=O)[O-])c2n[nH]c(-c3ccccc3)c2c1 | inactive: 0.362%

Row | SMILES | activation
24 | O=C(Nc1nc(-c2ccccc2)c(-c2ccccc2)o1)c1ccc(F)cc1 | inconclusive: 65.6%
25 | CCOC(=O)N1CCN(c2cc(C)c([N+](=O)[O-])cc2F)CC1 | inconclusive: 66.4%
26 | Cc1ccc(NC(=O)O/N=C/c2ccc(F)cc2)cc1 | inconclusive: 32.8%
27 | Cc1ccc(SCc2c(C(=O)N/N=C/c3ccoc3)nnn2-c2nonc2N)cc1 | inconclusive: 58.8%
28 | Cc1cccc(NC(=S)N(CCN2CCOCC2)Cc2cc3cc4c(cc3[nH]c2=O)OCO4)c1 | inconclusive: 33.9%
29 | O=C(NCC(c1ccco1)N1CCCC1)c1ccc(Cl)c(S(=O)(=O)N2CCc3ccccc32)c1 (stereo not given) | inactive: 0.775%
30 | CC(CC(=O)OCC(=O)NCc1ccc(Cl)cc1)c1ccccc1 (stereo not given) | inconclusive: 57.4%
31 | COc1ccc(OC)c(NC(=O)c2cccc(N3C(=O)C4C5CCC(C5)C4C3=O)c2)c1 (stereo not given) | inactive: 23.6%
32 | Cc1ccc(N=Nc2c(C)[nH]n(-c3ccccc3)c2=O)c(C)c1 | inactive: -9.42%
33 | O=C(NC(Cc1ccccc1)C(=O)N1CCCC(C(F)(F)F)C1)c1ccccc1 (stereo not given) | inconclusive: 49.4%
34 | CC1CCc2sc(C(=O)NCc3ccccn3)cc2C1 (stereo not given) | inconclusive: 35.7%
35 | COc1ccccc1CCNC(=O)Nc1cccc([N+](=O)[O-])c1 | inconclusive: 70%
36 | O=C(NCCCCc1ccccc1)c1ccccc1 | inconclusive: 54.3%
37 | Cc1cc(-n2c(C)cc(C(=O)COc3ccc(F)c(F)c3)c2C)no1 | inactive: -0.34%
38 | O=C(CSc1nc2ccccc2s1)N1CCCCC1 | inconclusive: 38.8%
39 | CCOc1cc(C(=S)N2CCOCC2)ccc1OC(=O)c1ccccc1 | inconclusive: 49.6%
40 | CC1(C)CC(=O)C2=C(C1)Nc1cc3c(cc1C2c1ccc(F)cc1)OCO3 (stereo not given) | inactive: 28.3%
41 | COc1ccc(C(=O)Nc2ccc(SC(F)F)cc2)cc1 | inconclusive: 61.1%
42 | CCCCSCCCNC(=S)Nc1ccccc1C | inactive: 6.34%
43 | O=C(Nc1ccc2c(c1)OCO2)Nc1cnccn1 | inactive: 0.0751%
44 | CCC(=O)Nc1cccc(-c2csc(-c3ccccc3)n2)c1 | inconclusive: 38.5%
45 | CC(Cc1ccccc1)C(=O)NCc1nc2ccccc2s1 (stereo not given) | inconclusive: 31.6%
46 | Cc1ccc(-c2cc(C(=O)N3CCc4ccccc4C3)[nH]n2)cc1C | inconclusive: 48.8%

Row | SMILES | activation
47 | COc1cc(/C=C2/SC(=S)N(Cc3ccccc3)C2=O)ccc1OCC(=O)O | inactive: 2.97%
48 | O=C(NC1CCCCCC1)c1nnc(Cc2ccc(Cl)cc2)o1 | inconclusive: 32.6%
49 | COc1ccc(N2CCN(C(CNS(=O)(=O)c3ccc4c(c3)OCCO4)c3ccco3)CC2)cc1 (stereo not given) | inactive: 1.86%
50 | COc1ccc(OC)c(C(C)NC(=O)Nc2ccccc2)c1 (stereo not given) | inconclusive: 35.2%
51 | CCCCOc1ccc(C)cc1CN(CCO)CCO | inactive: 15%
52 | CC(=O)NCCOc1ccc2oc3ccccc3c2c1 | inconclusive: 58.3%
53 | CCc1ccc(-n2c(SCC(=O)c3ccc4c(c3)NC(=O)CO4)nc3ccccc3c2=O)cc1 | inactive: -0.767%
54 | Cc1ccc2nc(CCc3nc4ccc(C)cc4[nH]3)[nH]c2c1 | inconclusive: 49.7%
55 | CC(C)c1ccc(-c2csc3ncnc(N4CCN(C)CC4)c23)cc1 | inconclusive: 30.1%
56 | Cc1c(C=O)c2ccccc2n1CC(=O)NCc1ccccc1 | inconclusive: 31.1%
57 | O=C(CCCOc1ccc(Cl)cc1)N1CCCCCC1 | inconclusive: 35.9%
58 | CC(=O)N1CCN(C(=S)c2cccc([N+](=O)[O-])c2)CC1 | inactive: -2.14%
59 | Cc1ccc(-c2csc(N3CCC[C@@H]3C(=O)NCCn3c(C(F)(F)F)nc4ccccc43)n2)cc1 | inconclusive: 41.9%
60 | CN(Cc1ccccc1)S(=O)(=O)c1cccc2nsnc12 | inactive: 2.28%
61 | COc1ccc2oc(C(=O)Nc3ccc(S(=O)(=O)N(C)C4CCN(C)CC4)cc3)c(C)c2c1 | inactive: 2.96%
62 | NC(=O)CSc1nccn1Cc1ccccc1 | inconclusive: 42.7%
63 | CCOc1cc(/C=C/c2ccc3cccc([N+](=O)[O-])c3n2)cc(Cl)c1O | inactive: 10.3%
64 | O=C(NC1CCCCCC1)c1ccc([N+](=O)[O-])s1 | inconclusive: 34.3%
65 | Cc1nc2ccccc2c(=O)n1/N=C/c1ccccc1 | inconclusive: 62.6%
66 | O=C1CCN(S(=O)(=O)c2cccs2)c2ccc(C(F)(F)F)cc2N1 | inactive: -4.15%
67 | O=C(NCc1ccc(F)cc1)c1cc2c(s1)CCCC2 | inconclusive: 34.3%
68 | CCOC(=O)N1CCN(CC(O)COCCC23CC4CC(CC(C4)C2)C3)CC1 (stereo not given) | inconclusive: 31.3%
69 | CCn1ccc(C(=O)Nc2cccc(Cl)c2)n1 | inconclusive: 51.9%

A few values from the entries so far:
For activation, Cc1nc2ccccc2c(=O)n1/N=C/c1ccccc1 is entered as inconclusive: 62.6%
For activation, COc1ccc2oc(C(=O)Nc3ccc(S(=O)(=O)N(C)C4CCN(C)CC4)cc3)c(C)c2c1 is entered as inactive: 2.96%
For activation, CCOC(=O)N1CCN(CC(O)COCCC23CC4CC(CC(C4)C2)C3)CC1 (stereo not given) is entered as inconclusive: 31.3%

(continued)

Row | SMILES | activation
70 | Cc1cccc(COC(=O)CCCNC(=O)c2ccc(Cl)cc2)c1 | inconclusive: 42.6%
71 | CC1CCCCC1NC(=O)COC(=O)c1ccc(S(=O)(=O)NCc2ccco2)cc1 (stereo not given) | inactive: -4.28%
72 | CCc1ccc(NC(=O)N2CCC(c3ccccc3)C2)cc1 (stereo not given) | inconclusive: 44.2%
73 | COc1ccc(NC(=O)C(=O)NCCN2CCN(C(=O)c3ccc(C(C)(C)C)cc3)CC2)cc1 | inconclusive: 34.5%
74 | Cc1ccc2c(C)c(C(=O)N(C)CCC3CCCCO3)oc2c1C (stereo not given) | inconclusive: 44.6%
75 | O=C(NNC(=O)c1cc(-c2cccc(Br)c2)nc2ccccc12)c1csc(N2CCOCC2)n1 | inactive: 0.357%
76 | CCN(C(=O)c1cc2c(=O)n3ccccc3nc2n1CCCOC)C1CCCCC1 | inconclusive: 41.9%
77 | CC1(c2nnc(-c3cccc(Cl)c3)o2)CC(c2cccc([N+](=O)[O-])c2)=NO1 (stereo not given) | inactive: 10.5%
78 | Cn1c(-c2ccc(F)cc2)cnc1NCc1cccc(F)c1 | inactive: -0.611%
79 | Cc1ccc(C)c(NC(=O)C2CCCN(S(=O)(=O)c3ccc4[nH]c(=O)ccc4c3)C2)c1 (stereo not given) | inactive: 1.13%
80 | Cn1nccc1NC(=O)Nc1ccc(Cl)cc1 | inconclusive: 78.4%
81 | O=C(CSc1nc2[nH]ncc2c(=O)[nH]1)Nc1ccc(Cl)cc1 | inactive: -4.02%
82 | Cc1ccc(CN(CC2CCCO2)C(=O)CN2C(=O)C(C(C)C)Oc3ccccc32)o1 (stereo not given) | inconclusive: 42.7%
83 | CCCOc1cccc(-c2cc(C(=O)NNC(=S)NCC)c3ccccc3n2)c1 | inconclusive: 46.6%
84 | COc1cc(OC)cc(C(=O)NC2CCCCCCC2)c1 | inconclusive: 32.5%
85 | Cc1ccc(/C=N/NC(=O)Cn2nnc(N)n2)cc1 | inactive: 0.681%
86 | COc1ccc(-n2c(SC(C)C(=O)Nc3ccc(NC(C)=O)cc3)nc3ccccc3c2=O)cc1OC (stereo not given) | inconclusive: 34.4%
87 | Cn1c(=O)[nH]c(=O)c2c1nc(SCCN1CCCCC1)n2Cc1ccccc1 | inactive: -2.71%
88 | Cc1ccc(N(Cc2ccccc2)C(=O)c2ccc(S(=O)(=O)N3CCOCC3)cc2)cc1 | inconclusive: 53.3%
89 | CC(c1ccccc1)n1c(CCCO)nc2ccccc21 (stereo not given) | inconclusive: 46.9%
90 | O=c1c(Cl)c(Nc2cccc(Cl)c2)cnn1-c1nc2ccccc2s1 | inconclusive: 62.7%
